PMC6137978
Results are given in words; binding and its absence hold for the method and conditions named. In cells and extracts the contact can be indirect. A result given as binding can be weak or reduced; the word gives no strength. For some of these results: Sequences can lack the tags named with a protein.

By UniProt entry, the sequences of proteins in these tests, tags left out. Where a name states a change or a piece, a line headed by the entry shows the natural chain unless it says otherwise.
UniProt Q5NB25: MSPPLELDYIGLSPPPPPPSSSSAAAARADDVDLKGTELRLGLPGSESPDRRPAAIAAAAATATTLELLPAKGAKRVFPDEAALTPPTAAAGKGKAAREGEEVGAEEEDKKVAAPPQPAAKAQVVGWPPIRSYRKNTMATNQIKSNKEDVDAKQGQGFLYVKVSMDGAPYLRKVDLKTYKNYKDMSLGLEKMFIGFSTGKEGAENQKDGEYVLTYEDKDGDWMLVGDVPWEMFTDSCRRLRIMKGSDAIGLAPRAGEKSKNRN
UniProt Q75GB1: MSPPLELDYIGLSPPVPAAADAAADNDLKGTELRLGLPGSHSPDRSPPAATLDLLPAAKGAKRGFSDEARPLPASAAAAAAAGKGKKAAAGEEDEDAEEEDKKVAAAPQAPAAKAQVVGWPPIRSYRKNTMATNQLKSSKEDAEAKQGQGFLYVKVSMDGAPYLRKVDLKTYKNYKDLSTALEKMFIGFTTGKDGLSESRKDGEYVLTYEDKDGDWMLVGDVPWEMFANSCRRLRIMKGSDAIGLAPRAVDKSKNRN

Legend:
[1] = biological target: T1, HF-Gnp4 (rice (Oryza sativa)) (UniProt G3XKQ9); assay: co-IP; HF-Gnp4 with Myc-tagged OsIAA3 or OsIAA17 in tobacco leaves; as in Zhang et al., 2017
T1 sequence: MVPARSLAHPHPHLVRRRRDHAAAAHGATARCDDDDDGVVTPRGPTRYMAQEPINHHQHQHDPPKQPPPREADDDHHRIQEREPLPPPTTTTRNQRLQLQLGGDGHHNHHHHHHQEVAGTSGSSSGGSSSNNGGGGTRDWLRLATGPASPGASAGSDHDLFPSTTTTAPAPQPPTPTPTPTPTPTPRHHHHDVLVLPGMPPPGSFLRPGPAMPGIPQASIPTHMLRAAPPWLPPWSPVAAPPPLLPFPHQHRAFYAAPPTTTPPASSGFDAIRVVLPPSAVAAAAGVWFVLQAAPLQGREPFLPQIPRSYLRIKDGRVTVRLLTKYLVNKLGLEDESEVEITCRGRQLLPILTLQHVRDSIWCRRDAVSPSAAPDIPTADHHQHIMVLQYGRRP

[2] = biological target: T2, Gnp4-YFP^C (rice (Oryza sativa)) (UniProt G3XKQ9); assay: split reporter; BiFC; Gnp4-YFP^C with YFP^N fusions, transient expression in N. benthamiana leaf epidermal cells, confocal microscopy 3 d after infiltration
T2 sequence: T1 sequence

binding [1]	binding [2]	Substance
binds		OsIAA3-Myc (from UniProt Q5NB25)
	binds	OsIAA3-YFP^N (from UniProt Q5NB25)
binds		OsIAA17-Myc (from UniProt Q75GB1)
	binds	OsIAA17-YFP^N (from UniProt Q75GB1)
